US10202469B2 (Glytech, Inc., priority 2012, dated 2019)
Strings that start with PEPTIDE1 are HELM notation: dots part the residues, brackets hold end groups and non-standard residues.

Test: general procedure: Fmoc solid-phase peptide synthesis; Rink-Amide-PEGA resin; HCTU
Conditions: for conjugation yield: conjugation step

Substance	isolated mass (whole synthesis, scale 10 μmol) [mg]	conjugation yield [%]
PEPTIDE1{R.W.G.L.L.L.A.L.L.[HMBA].[Cys_open(CH2CO)].[am]}|CHEM1{[asialo-NH]}$PEPTIDE1,CHEM1,11:R3-1:R1$$$V2.0	5.0	
PEPTIDE1{R.W.G.L.L.L.A.L.L.[SCH2CH2SCH2CO].[asialo-NH]}$$$$V2.0		10.5
Arg-Trp-Gly-Leu-Leu-Leu-Ala-Leu-Leu-(sugar chain added-linker: 4-thiobenzoic acid-Asn(asialo)-Gly)		17.5
